Source: PubChem BioAssay AID2551 (National Center for Advancing Translational Sciences (NCATS), 2010)
Screen size: about 310,000 compounds; about 17,000 (5.5%) were called active. This list was built around the results that the source calls inconclusive (neither active nor inactive); the mix of calls is not that of the screen. Calls come from the whole dose curve; as a rule, active = well fitted inhibition curve with a large enough effect; inconclusive = small, poorly fitted or top-dose-only effect, or effect the other way; inactive = no such curve, though single readings can be large or run the other way. Potencies beside an inconclusive call are fits to weak or partial responses and may not hold up.

Protein sequences, listed by entry. Tags and fused reporters are not part of them. Lines headed by an entry give the natural chain unless they say otherwise; changes in a name come on top.
UniProt P51450: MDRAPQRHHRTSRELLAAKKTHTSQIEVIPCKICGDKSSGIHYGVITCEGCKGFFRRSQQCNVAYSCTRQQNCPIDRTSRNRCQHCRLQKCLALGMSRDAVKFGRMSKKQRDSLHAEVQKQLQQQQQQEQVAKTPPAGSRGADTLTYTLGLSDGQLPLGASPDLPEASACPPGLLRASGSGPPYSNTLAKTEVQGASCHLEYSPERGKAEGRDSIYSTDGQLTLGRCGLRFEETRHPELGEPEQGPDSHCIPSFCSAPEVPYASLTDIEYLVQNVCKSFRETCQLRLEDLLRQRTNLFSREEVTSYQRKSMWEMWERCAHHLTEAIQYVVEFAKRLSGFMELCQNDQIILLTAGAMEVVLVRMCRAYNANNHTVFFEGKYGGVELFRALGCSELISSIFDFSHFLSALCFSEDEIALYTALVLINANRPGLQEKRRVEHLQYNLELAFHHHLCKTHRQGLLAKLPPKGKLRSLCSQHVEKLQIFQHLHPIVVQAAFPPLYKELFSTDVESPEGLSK

Biological target: Nuclear receptor ROR-gamma (Mus musculus) (UniProt P51450)
Assay: qHTS for inhibitors of ROR gamma transcriptional activity; note: nearly all actives have a fitted effect of over 60% in size
Settings: Drosophila S2 Gal4-RORgamma UAS-luciferase reporter, 20 h; series mostly up to 53.6 µM
Outline: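 Using a luciferase readout, inhibitors were identified by reduced reporter activity in Drosophila cells coexpressing a copper-inducible Gal4–ROR gamma fusion and UAS-driven Photinus luciferase, incubated 20 hr after 700 uM copper sulfate.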
Potency is the fitted concentration of half-maximal effect.

SMILES | Potency
Cc1ccc(NC(=O)C2CCCN(S(=O)(=O)c3ccc4c(c3)oc(=O)n4C)C2)nc1 (stereo not drawn) | inconclusive: 12.6 µM [activator, single point]
CC(=O)Oc1ccc2c(c1)CCC1C2CC[C@]2(C)C(=O)CCC12 (stereo partly drawn) | inactive
COc1ccccc1NC(=O)N(Cc1cccs1)Cc1cc2cc3c(cc2[nH]c1=O)OCO3 | inconclusive: 15.8 µM [activator, single point]
CCc1ccccc1NC(=O)CN1C(=O)C2CCCN2c2ncc(Cl)cc21 (stereo not drawn) | inactive
C=C(C)CNC(=S)NNC(=O)c1cc(C)oc1C | inconclusive: 11.2 µM [inhibitor, single point]
O=C(NCCc1ccccc1)c1ccc2c(c1)OCCCO2 | active: 0.355 µM
CN(CC(=O)Nc1ccc(OC(F)(F)F)cc1)S(=O)(=O)c1cnc[nH]1 | inactive
Cc1cc(=O)[nH]c2nnc(-c3ccc(Br)cc3)n12 | inactive
Cc1sc(NC(=S)NC(=O)c2cccs2)nc1-c1ccc(CC(C)C)cc1 | inconclusive: 0.631 µM [inhibitor, single point]
C/C(=N/NC(=O)c1cccs1)c1ccco1 | inconclusive: 35.5 µM [inhibitor, single point]
CSc1ccc(C#N)cc1NC(=O)c1ccc(Cl)cc1Cl | inconclusive: 8.91 µM [inhibitor, partial curve]
COc1ccccc1-c1nc(-c2cccc(C)c2)no1 | inconclusive: 15.8 µM [inhibitor, single point]
Cc1ccc(COc2ccc(C(=O)NN)cc2)cc1 | inconclusive: 11.2 µM [inhibitor, single point]
CC(=O)N(C)c1ccc(NC(=O)CCN2C(=O)c3ccccc3C2=O)cc1 | inactive
COc1cc(/C=N/NC(=S)N/N=C/c2cc(OC)c(OC)c(OC)c2)cc(OC)c1OC | inconclusive: 0.891 µM [inhibitor, single point]
Cc1c(C(=O)Oc2cccc3cccnc23)oc2ccccc12 | active: 3.16 µM
O=C(Nc1cccc(Cl)c1)c1cc(N=Nc2ccc([N+](=O)[O-])cc2Cl)ccc1O | inconclusive: 11.2 µM [activator, partial curve]
CS(=O)(=O)Nc1cccc(-c2ccc3ncnc(NCc4cccs4)c3c2)c1 | inconclusive: 12.6 µM [activator, partial curve]
COc1ccccc1OCCCc1c(C)n[nH]c1C | inactive
COc1ccc(/C(C)=C(\C#N)C(=O)OC(C)C)cc1OC | inconclusive: 0.891 µM [inhibitor, partial curve]
CC(C)N(Cc1nc(-c2ccccc2)no1)C(=O)C(C)(C)C | inconclusive: 0.251 µM [activator, single point]
OCCN(Cc1ccccc1)c1ncnc2sccc12 | inconclusive: 35.5 µM [activator, single point]
CCN(CC)C(=O)CSc1nc2ccccc2c(=O)n1CCC(=O)NCc1ccc(F)cc1 | inconclusive: 6.31 µM [inhibitor, single point]
Cc1ccc(/C=N/Nc2ccnc3cc(Cl)ccc23)c(C)c1 | inconclusive: 22.4 µM [inhibitor, single point]
CCOC(=O)N1CCN(S(=O)(=O)c2ccc(C(=O)N(CCCN(C)C)c3nc4ccc(Cl)cc4s3)cc2)CC1 | inconclusive: 5.01 µM [inhibitor, partial curve, poor fit]

SMILES | Potency
CC(c1ccccc1)N1C(=O)NC(NC(=O)c2cccnc2)(C(F)(F)F)C1=O (stereo not drawn) | inconclusive: 11.2 µM [activator, partial curve]
Cc1ccc(C(=O)CSc2nnc(COc3ccccc3)o2)cc1 | inconclusive: 35.5 µM [inhibitor, single point]
Cc1cc(O)ccc1-c1cnc2ccccc2n1 | inactive
COC(=O)c1ccc(N2CCOCC2)c(NC(=O)c2cccs2)c1 | inactive
COc1ccc(S(=O)(=O)N2c3ccccc3OCC2c2ccccc2)cc1 (stereo not drawn) | inconclusive: 28.2 µM [activator, single point]
CC(/C=C/c1ccccc1)=N\NC(N)=S | active: 0.562 µM
Nc1nonc1C(=O)NCCNC(=O)c1cccc(Cl)c1 | inactive
O=C(CCN1CCc2ccccc2C1)c1ccc2c(c1)OCCO2 | active: 3.16 µM
COc1ccccc1N1CCN(c2nc(C)nc3c2oc2ccccc23)CC1 | inconclusive: 20 µM [inhibitor, partial curve, poor fit]
O=C(CCl)NC1CCCc2ccccc21 (stereo not drawn) | inactive
Cc1ccc(NC(=S)N/N=C/c2c(C)nn(-c3ccccc3)c2N2CCCC2)cc1 | inconclusive: 0.0447 µM [inhibitor, full curve, poor fit]
Cc1ccc(OCCn2cc(/C=N/NC(=O)c3ccncc3)c3ccccc32)cc1 | active: 5.01 µM
CCN1CN(CCc2ccccc2)CNC1=S | active: 12.6 µM
CC(C)(CC(=O)O)CC(=O)N1CCN(c2nc3ccc(Cl)cc3s2)CC1 | inconclusive: 11.2 µM [activator, partial curve]
Cc1ccc(NC(=O)COc2ccc(-c3nnco3)cc2)cc1S(=O)(=O)N1CCOCC1 | inconclusive: 35.5 µM [activator, single point]
O=C(CCNC(=O)c1ccco1)Nc1ccc(Cl)c(C(F)(F)F)c1 | inactive
COc1ccc2nc(Nc3sc4c(c3C(N)=O)CCCC4)sc2c1 | active: 1.41 µM
CCn1c(-c2ccccc2SC)n[nH]c1=S | active: 14.1 µM
Cc1ccc(CN2CCC(Oc3cccc(C(=O)NCc4cccnc4)c3)CC2)o1 | inactive
COc1cc2c(cc1NC(=O)COC(=O)[C@@H](NC(=O)c1ccccc1)C(C)C)oc1ccccc12 | active: 8.91 µM
OCCN1CCN(c2nc(-c3ccccc3)c3cc(Br)ccc3n2)CC1 | inconclusive: 12.6 µM [inhibitor, partial curve, poor fit]
CCOC(=O)Cn1cc(/C=N/NC(=O)c2cc3ccccc3o2)c2ccccc21 | inconclusive: 2.51 µM [inhibitor, single point]
CC(C)C(=O)Nc1ccc(Sc2ccc(F)cc2)cc1 | inconclusive: 11.2 µM [activator, single point]
O=C(NC(=S)Nc1c(Cl)ccc2nsnc12)c1ccco1 | inconclusive: 20 µM [inhibitor, single point]
CC/C(=N\NC(=S)Nc1cc(C)ccc1C)c1ccc(OC(F)F)cc1 | inconclusive: 5.01 µM [inhibitor, single point]

SMILES | Potency
Cc1nnc(NC(=O)Nc2cccc(Cl)c2)s1 | inconclusive: 7.08 µM [activator, full curve, poor fit]
COC(=O)/C=C1/S/C(=N/NC(=O)c2ccccc2C)NC1=O | inconclusive: 2.82 µM [inhibitor, single point]
COc1ccc2nc(SCC(=O)c3ccco3)[nH]c2c1 | inconclusive: 10 µM [inhibitor, single point]
CC(C)NC(=S)N1CCN(C(c2ccccc2)c2ccccc2)CC1 | inconclusive: 6.31 µM [activator, single point]
COc1ccccc1-c1cncnc1NCc1cccs1 | inactive
Cc1ccc2nc(-c3ccc(NC(=O)CCS(=O)(=O)c4ccccc4)cc3)sc2c1 | active: 1.12 µM
CCSc1nnc(NC(=O)C2Cc3ccccc3CN2S(=O)(=O)CC)s1 (stereo not drawn) | inconclusive: 1 µM [inhibitor, single point]
Cc1cc(C)nc(/N=c2/ssnc2Cl)c1 | active: 20 µM
CCC(=O)Nc1nonc1-c1nc2ccccc2n1CCC(C)C | inactive
CCc1ccc(C(=O)N/N=C/c2cccc3ccccc23)nc1 | inconclusive: 17.8 µM [inhibitor, single point]
COc1ccccc1-c1noc(CCCC(=O)N2CCOCC2)n1 | inconclusive: 0.631 µM [activator, single point]
COC(=O)C1=C(Nc2ccc(C)cc2)C=C(C)C(C(=O)OC)C1c1cccc(OC)c1 (stereo not drawn) | inconclusive: 3.98 µM [activator, single point]
O=C(O)c1ccc2c3c(ncnc13)-c1ccccc1C2=O | inconclusive: 14.1 µM [inhibitor, single point]
CCOc1ccccc1NC(=S)N(CCCN1CCOCC1)Cc1cn(C)c2ccccc12 | active: 11.2 µM
COc1cc(C2c3cc4c(cc3C(O[C@@H]3OC5COC(c6cccs6)OC5C(O)C3O)C3COC(=O)C23)OCO4)cc(OC)c1O (stereo partly drawn) | inactive
Oc1ccccc1C1CC(c2cccs2)=NC(c2cccc(Br)c2)N1 (stereo not drawn) | inconclusive: 22.4 µM [inhibitor, single point]
COc1ccc2ccccc2c1/C=N/NC(=O)c1ccc(C)nc1 | inconclusive: 1.12 µM [inhibitor, full curve, poor fit]
O=C(O)CCS(=O)(=O)c1nc(-c2cccs2)cc(C(F)(F)F)n1 | inconclusive: 15.8 µM [inhibitor, single point]
Nc1c(C(=O)c2ccccc2)sc2nsc(SCCN3CCCC3)c12 | inconclusive: 11.2 µM [activator, partial curve]
CCn1cc(-c2cc(C(=O)O)c3ccccc3n2)c(C)n1 | inconclusive: 20 µM [inhibitor, single point]
CC(=O)N/C(=C\c1ccccc1)C(=O)OCC(=O)NC1CCCC1 | inconclusive: 0.251 µM [inhibitor, full curve, poor fit]
c1cc2c3c(cccc3c1)C(N1CCCCC1)=N2 | inconclusive: 0.316 µM [inhibitor, partial curve, poor fit]
COc1ccccc1/C=C(/CC(=O)NCc1ccc2c(c1)OCO2)c1nc2ccccc2s1 | inconclusive: 5.62 µM [activator, full curve]

Retrieved by compound from the entries so far, six records:
SMILES | Potency
CC(=O)N/C(=C\c1ccccc1)C(=O)OCC(=O)NC1CCCC1 | inconclusive: 0.251 µM [inhibitor, full curve, poor fit]
COc1ccc2ccccc2c1/C=N/NC(=O)c1ccc(C)nc1 | inconclusive: 1.12 µM [inhibitor, full curve, poor fit]
CCc1ccc(C(=O)N/N=C/c2cccc3ccccc23)nc1 | inconclusive: 17.8 µM [inhibitor, single point]
COc1ccccc1/C=C(/CC(=O)NCc1ccc2c(c1)OCO2)c1nc2ccccc2s1 | inconclusive: 5.62 µM [activator, full curve]
c1cc2c3c(cccc3c1)C(N1CCCCC1)=N2 | inconclusive: 0.316 µM [inhibitor, partial curve, poor fit]
COc1cc(C2c3cc4c(cc3C(O[C@@H]3OC5COC(c6cccs6)OC5C(O)C3O)C3COC(=O)C23)OCO4)cc(OC)c1O (stereo partly drawn) | inactive
